These are yes or no findings as the source states them, for the method shown. Binding seen in cells or lysates may run through a third protein. Some results given as binding are weak or reduced against the parent protein; the word gives no strength. Where a sequence is shown, tags or fusion partners need not be part of it.
What was measured:
[1] = target: T1, Flag-tagged TORC2 (UniProt Q53ET0); test: co-immunoprecipitation from co-transfected HEK293T cells, Western blot (FIG. 6B)
T1 sequence (phosphorylated in cells (Ser171 and other serines), looked up): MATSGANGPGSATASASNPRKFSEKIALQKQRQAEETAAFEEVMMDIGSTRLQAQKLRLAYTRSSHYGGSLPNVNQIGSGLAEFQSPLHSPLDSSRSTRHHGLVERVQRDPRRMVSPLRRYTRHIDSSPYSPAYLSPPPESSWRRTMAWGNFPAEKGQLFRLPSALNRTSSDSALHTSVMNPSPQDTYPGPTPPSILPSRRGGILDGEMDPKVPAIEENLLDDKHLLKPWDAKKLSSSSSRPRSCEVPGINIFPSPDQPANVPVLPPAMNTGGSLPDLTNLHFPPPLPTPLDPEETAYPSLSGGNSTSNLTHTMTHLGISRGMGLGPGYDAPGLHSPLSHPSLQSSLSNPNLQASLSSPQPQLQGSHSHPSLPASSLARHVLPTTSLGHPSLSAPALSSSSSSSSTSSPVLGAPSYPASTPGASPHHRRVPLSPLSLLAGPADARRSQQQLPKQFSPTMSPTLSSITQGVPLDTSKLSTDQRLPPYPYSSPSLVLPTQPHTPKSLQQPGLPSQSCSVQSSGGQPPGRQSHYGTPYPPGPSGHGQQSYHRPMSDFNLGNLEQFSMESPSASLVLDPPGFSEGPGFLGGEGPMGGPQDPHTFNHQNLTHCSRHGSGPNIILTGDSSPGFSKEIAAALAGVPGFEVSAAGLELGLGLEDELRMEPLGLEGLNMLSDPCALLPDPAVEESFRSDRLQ

Amino acid sequences for entries named in this document (tags omitted).
UniProt Q9H0K1: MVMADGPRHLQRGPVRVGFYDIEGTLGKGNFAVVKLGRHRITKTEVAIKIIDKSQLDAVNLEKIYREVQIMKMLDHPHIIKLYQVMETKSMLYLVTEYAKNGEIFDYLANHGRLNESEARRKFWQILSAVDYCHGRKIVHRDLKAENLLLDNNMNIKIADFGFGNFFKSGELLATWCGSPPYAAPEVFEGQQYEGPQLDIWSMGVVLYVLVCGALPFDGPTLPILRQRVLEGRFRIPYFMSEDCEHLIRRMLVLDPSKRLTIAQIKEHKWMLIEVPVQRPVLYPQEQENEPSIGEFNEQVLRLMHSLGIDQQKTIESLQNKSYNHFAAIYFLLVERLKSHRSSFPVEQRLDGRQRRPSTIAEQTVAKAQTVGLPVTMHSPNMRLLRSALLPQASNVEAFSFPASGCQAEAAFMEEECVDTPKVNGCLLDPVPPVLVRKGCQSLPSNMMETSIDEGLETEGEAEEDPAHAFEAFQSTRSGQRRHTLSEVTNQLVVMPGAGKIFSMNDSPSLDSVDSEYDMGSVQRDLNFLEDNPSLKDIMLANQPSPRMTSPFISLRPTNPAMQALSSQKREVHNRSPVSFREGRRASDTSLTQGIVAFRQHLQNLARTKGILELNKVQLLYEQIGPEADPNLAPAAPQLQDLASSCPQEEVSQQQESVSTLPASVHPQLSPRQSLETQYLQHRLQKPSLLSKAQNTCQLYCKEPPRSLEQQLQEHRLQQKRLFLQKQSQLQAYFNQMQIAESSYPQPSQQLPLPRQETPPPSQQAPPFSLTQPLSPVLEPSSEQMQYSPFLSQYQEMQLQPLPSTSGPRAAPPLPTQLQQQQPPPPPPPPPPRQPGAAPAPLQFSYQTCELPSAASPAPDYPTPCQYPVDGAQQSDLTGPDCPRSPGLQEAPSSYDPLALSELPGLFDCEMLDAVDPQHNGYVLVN

[2] = target: T1, Flag-tagged TORC2; test: co-immunoprecipitation and kinase assays (FIGS. 6A-6D)
[3] = target: T1, Flag-tagged TORC2; test: co-immunoprecipitation, Western blot; also found by proteomic analysis of Flag-TORC2 immunoprecipitates (SIK2: 6 peptides, 11.7% coverage)

Measured: binding

Salt Inducible Kinase 2 (SIK2) (from UniProt Q9H0K1 1-926) (enzyme)
binds: [1] | [2] | [3]

From patent US20100190693A1
